Counter-ions that a name gives are not always drawn. Some of the results follow. Hit calls seldom repeat between salt and free forms of one compound.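 Kinases, fused to nanoluciferase, were expressed in K562 cells; luminescence was measured every 4 h from 2 to 18 h as percent of control (DMSO = 100%, positive control = 0%). A time point is decreased if signal falls significantly (2 sigma). Hits were called by the authors by a rule that is not shown; the count of time points alone does not decide it.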
Columns and labels:
Assay in all cases: kinase-Nluc reporter destabilization hit call (1 = scored as downregulated) (binary); higher = compound decreases kinase abundance
Conditions in all cases: K562; 2-18 h
IRAK3 = IRAK3 (UniProt Q9Y616)
JAK1 = JAK1 (UniProt P23458)
LCK = LCK (UniProt P06239)
LIMK1 = LIMK1 (UniProt P53667)
LIMK2 = LIMK2 (UniProt P53671)
LMTK2 = LMTK2 (UniProt Q8IWU2)
LYN = LYN (UniProt P07948)
MAP2K1 = MAP2K1 (UniProt Q02750)
MAP2K2 = MAP2K2 (UniProt P36507)
MAP4K2 = MAP4K2 (UniProt Q12851)

Chains of the proteins cited; added tags and fusions are not shown. Lines headed by an entry give the natural chain unless they say otherwise; changes in a name come on top.
UniProt Q9Y616: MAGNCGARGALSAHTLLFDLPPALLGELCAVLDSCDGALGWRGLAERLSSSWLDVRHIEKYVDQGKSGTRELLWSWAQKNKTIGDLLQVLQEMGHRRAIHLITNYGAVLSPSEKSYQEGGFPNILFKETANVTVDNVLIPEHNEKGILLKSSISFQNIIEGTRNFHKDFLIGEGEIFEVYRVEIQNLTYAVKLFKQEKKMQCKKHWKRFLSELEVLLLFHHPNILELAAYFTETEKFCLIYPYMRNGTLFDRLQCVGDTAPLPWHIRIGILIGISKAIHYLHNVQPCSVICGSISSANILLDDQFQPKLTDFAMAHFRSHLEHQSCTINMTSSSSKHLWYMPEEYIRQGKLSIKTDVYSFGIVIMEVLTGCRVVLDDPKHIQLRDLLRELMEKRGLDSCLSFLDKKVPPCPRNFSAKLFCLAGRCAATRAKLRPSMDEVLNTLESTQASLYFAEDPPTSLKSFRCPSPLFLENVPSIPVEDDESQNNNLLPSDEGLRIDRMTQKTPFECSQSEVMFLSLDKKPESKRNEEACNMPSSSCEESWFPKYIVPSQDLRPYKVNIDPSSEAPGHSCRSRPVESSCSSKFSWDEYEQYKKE
UniProt P23458: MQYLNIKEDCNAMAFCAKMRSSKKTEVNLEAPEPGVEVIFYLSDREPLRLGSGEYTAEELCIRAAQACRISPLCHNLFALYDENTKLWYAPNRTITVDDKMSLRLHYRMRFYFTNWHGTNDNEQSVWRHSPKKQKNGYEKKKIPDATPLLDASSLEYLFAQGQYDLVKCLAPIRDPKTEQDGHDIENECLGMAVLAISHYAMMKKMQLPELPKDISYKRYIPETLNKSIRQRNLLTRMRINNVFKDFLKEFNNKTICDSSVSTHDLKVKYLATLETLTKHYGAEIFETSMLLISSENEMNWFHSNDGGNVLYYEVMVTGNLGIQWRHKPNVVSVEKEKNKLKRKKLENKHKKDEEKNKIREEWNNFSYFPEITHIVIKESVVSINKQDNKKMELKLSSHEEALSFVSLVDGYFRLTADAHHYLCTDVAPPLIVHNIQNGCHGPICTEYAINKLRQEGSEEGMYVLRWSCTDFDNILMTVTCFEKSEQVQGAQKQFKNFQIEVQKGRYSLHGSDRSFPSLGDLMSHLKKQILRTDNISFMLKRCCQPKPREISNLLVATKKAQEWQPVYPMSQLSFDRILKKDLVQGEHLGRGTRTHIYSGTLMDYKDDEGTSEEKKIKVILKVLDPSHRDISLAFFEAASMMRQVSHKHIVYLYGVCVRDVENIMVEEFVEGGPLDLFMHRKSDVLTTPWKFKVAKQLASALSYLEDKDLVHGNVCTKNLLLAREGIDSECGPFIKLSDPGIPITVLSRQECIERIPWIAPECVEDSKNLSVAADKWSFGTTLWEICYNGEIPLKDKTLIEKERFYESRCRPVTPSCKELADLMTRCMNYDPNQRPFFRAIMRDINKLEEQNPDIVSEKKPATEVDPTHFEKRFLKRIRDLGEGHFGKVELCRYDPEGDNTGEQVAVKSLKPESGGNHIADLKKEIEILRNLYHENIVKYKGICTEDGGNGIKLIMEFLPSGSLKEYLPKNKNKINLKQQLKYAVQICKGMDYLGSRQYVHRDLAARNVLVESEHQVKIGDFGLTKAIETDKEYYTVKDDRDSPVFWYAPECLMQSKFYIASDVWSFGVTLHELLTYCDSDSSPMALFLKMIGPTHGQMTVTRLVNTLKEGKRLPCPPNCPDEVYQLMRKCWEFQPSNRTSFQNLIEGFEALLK
UniProt P06239: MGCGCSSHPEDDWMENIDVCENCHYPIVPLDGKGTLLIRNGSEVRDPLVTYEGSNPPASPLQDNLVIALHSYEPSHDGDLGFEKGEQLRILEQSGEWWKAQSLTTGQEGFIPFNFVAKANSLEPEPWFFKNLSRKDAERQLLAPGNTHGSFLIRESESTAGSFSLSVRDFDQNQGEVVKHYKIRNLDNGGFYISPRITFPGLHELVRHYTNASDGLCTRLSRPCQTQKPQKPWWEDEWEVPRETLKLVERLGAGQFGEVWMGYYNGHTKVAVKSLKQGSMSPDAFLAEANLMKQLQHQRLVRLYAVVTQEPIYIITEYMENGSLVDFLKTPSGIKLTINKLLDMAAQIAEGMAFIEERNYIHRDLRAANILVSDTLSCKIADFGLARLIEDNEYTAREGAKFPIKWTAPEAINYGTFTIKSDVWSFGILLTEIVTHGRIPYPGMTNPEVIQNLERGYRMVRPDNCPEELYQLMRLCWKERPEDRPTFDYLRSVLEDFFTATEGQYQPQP
UniProt P53667: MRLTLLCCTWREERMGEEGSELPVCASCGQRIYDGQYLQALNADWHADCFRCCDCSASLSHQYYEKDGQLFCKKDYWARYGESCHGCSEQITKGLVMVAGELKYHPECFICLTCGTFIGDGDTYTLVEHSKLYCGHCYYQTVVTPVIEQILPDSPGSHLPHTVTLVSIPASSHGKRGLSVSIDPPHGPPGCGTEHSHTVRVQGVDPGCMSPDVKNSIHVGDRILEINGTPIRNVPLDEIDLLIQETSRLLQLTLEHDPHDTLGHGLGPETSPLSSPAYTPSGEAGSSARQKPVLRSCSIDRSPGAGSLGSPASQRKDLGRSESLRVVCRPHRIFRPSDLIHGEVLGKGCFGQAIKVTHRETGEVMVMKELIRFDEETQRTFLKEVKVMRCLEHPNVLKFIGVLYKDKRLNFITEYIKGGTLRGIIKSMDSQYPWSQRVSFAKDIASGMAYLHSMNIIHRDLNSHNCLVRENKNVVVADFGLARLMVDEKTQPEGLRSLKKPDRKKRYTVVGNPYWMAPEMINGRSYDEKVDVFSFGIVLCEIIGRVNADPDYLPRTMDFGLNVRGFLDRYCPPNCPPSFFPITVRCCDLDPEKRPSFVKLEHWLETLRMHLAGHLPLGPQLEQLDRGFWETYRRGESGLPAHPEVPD
UniProt P53671: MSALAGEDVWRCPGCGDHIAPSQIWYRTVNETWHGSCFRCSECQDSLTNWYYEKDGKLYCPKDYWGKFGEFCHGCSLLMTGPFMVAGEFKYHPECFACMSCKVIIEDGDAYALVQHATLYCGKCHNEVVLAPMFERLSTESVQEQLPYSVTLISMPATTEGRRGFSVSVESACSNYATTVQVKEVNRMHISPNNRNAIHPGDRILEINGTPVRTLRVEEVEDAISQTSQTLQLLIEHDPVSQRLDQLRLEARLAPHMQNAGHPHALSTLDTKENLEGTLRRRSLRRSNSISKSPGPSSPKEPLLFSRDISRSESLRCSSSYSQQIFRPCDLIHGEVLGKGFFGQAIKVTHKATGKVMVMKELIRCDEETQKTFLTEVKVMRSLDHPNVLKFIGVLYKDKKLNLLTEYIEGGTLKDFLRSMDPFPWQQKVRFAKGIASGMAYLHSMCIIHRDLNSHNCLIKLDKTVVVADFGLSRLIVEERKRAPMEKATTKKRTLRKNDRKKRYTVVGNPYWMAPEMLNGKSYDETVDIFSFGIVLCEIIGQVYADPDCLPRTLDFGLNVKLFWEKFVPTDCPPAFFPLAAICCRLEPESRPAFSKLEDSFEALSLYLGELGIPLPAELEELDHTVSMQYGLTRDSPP
UniProt Q8IWU2: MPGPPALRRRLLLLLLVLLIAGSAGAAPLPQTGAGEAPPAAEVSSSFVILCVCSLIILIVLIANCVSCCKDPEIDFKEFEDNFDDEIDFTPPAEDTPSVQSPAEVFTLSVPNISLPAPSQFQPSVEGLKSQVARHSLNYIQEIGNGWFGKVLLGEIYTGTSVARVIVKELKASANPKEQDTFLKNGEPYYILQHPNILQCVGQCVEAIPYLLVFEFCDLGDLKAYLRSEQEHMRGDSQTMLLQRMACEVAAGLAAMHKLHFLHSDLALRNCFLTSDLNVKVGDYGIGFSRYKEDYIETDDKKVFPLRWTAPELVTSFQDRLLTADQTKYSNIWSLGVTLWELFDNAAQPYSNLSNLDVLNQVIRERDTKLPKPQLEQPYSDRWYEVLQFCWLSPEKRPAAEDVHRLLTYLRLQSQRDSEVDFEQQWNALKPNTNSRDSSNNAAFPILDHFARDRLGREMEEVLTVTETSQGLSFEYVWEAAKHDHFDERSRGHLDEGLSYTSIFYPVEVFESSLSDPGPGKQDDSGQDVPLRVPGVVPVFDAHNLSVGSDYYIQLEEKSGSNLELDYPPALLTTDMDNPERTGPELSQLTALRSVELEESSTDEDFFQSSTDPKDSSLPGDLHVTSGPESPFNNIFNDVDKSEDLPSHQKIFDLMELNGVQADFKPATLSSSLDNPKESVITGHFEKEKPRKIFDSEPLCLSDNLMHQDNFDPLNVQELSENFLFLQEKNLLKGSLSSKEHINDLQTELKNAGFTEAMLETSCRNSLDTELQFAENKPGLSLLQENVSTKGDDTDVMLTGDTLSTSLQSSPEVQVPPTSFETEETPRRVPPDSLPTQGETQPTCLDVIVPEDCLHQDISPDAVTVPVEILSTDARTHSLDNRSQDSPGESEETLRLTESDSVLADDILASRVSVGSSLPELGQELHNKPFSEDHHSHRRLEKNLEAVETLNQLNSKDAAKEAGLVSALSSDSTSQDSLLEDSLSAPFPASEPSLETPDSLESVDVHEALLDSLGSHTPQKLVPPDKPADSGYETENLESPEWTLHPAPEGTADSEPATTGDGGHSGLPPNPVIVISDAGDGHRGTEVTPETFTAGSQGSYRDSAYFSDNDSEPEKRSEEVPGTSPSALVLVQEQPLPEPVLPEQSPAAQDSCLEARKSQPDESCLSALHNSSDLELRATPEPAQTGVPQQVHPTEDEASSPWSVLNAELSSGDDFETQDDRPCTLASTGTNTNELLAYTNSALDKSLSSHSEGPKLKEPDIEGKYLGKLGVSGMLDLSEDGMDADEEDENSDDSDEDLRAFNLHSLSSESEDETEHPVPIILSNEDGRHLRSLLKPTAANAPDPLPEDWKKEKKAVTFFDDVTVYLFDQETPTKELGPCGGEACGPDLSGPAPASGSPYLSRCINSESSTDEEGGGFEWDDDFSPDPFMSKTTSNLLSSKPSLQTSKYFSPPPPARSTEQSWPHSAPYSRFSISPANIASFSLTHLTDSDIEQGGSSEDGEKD
UniProt P07948: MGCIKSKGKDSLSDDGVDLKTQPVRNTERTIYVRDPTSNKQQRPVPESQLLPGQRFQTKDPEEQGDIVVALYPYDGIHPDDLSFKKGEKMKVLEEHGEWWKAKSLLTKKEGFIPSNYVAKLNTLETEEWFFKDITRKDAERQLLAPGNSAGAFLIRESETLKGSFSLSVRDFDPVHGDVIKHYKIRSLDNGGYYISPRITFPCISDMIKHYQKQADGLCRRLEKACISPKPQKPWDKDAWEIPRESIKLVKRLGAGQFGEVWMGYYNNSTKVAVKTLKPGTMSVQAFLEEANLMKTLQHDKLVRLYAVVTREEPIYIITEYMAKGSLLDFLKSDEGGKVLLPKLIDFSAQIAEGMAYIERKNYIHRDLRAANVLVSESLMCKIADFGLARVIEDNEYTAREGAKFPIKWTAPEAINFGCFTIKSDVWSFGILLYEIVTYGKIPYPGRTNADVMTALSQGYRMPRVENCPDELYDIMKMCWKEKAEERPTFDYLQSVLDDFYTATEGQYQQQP
UniProt Q12851: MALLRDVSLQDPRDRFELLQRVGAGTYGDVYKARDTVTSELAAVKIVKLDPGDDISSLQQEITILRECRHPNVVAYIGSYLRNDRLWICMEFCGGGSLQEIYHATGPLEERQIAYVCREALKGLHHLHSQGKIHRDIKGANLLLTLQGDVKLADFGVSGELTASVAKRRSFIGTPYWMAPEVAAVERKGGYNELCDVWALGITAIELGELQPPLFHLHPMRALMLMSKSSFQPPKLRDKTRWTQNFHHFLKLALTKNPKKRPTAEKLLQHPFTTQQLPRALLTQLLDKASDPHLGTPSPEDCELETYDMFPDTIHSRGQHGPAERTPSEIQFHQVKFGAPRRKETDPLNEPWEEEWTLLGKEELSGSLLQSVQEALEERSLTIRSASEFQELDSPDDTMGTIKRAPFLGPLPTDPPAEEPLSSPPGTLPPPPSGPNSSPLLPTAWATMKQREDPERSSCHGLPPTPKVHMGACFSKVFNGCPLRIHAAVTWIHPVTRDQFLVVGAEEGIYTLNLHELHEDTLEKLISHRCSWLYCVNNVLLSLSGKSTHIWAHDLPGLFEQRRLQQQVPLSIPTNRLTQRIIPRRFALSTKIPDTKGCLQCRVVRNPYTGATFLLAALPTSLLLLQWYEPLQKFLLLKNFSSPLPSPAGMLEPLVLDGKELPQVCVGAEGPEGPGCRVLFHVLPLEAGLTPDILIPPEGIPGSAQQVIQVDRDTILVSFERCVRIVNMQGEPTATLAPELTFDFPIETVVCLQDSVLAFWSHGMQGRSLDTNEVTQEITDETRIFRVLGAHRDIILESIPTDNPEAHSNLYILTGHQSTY

Measured: kinase-Nluc reporter destabilization hit call

CC(C)=C/C=C1\O[C@@H]2CC(C)=CC(=O)[C@@H]2[C@]1(C)O [Bisabolangelone] (10 µM)
inactive: IRAK3 = 0 | JAK1 = 0 | LCK 0 | LIMK1 = 0 | LIMK2 = 0 | LMTK2 = 0 | LYN 0 | MAP2K1 = 0 | MAP2K2 = 0 | MAP4K2 = 0

Cc1ccc(Nc2c(C(N)=O)cnc3cc(-c4ccncc4)ccc23)cc1C [cFMS Receptor Inhibitor II] (10 µM)
inactive: IRAK3 = 0 | JAK1 = 0 | LCK 0 | LIMK1 = 0 | LIMK2 = 0 | LMTK2 = 0 | LYN 0 | MAP2K1 = 0 | MAP2K2 = 0 | MAP4K2 = 0

C[C@@H]1O[C@@H](O[C@H]2[C@H](OC(=O)[C@]34CCC(C)(C)C[C@H]3C3=CC[C@@H]5[C@@]6(C)C[C@H](O)[C@H](O[C@@H]7O[C@H](CO)[C@@H](O)[C@H](O)[C@H]7O)C(CO)(CO)[C@@H]6CC[C@@]5(C)[C@]3(C)C[C@H]4O)OC[C@H](O)[C@@H]2O)[C@H](O)[C@H](O)[C@H]1O[C@@H]1OC[C@@H](O)[C@H](O[C@@H]2OC[C@](O)(CO)[C@H]2O)[C@H]1O [Platycodin D] (10 µM)
inactive: IRAK3 = 0 | JAK1 = 0 | LCK 0 | LIMK1 = 0 | LIMK2 = 0 | LMTK2 = 0 | LYN 0 | MAP2K1 = 0 | MAP2K2 = 0 | MAP4K2 = 0

CC(=O)c1cc(O)ccc1O [2,5-Dihydroxyacetophenone] (10 µM)
inactive: IRAK3 = 0 | JAK1 = 0 | LCK 0 | LIMK1 = 0 | LIMK2 = 0 | LMTK2 = 0 | LYN 0 | MAP2K1 = 0 | MAP2K2 = 0 | MAP4K2 = 0

O=C1c2c(O)cc(O)cc2O[C@H](c2cc(O)c(O)c(O)c2)[C@H]1O [Dihydromyricetin] (10 µM)
inactive: IRAK3 = 0 | JAK1 = 0 | LCK 0 | LIMK1 = 0 | LIMK2 = 0 | LMTK2 = 0 | LYN 0 | MAP2K1 = 0 | MAP2K2 = 0 | MAP4K2 = 0

CNCCOc1ccccc1C(C)(C)Nc1nccn(-c2cc(C(=O)NC3CC3)ccc2C)c1=O [p38α inhibitor 2] (10 µM)
inactive: IRAK3 = 0 | JAK1 = 0 | LCK 0 | LIMK1 = 0 | LIMK2 = 0 | LMTK2 = 0 | LYN 0 | MAP2K1 = 0 | MAP2K2 = 0 | MAP4K2 = 0

COc1ccc(-c2cnc3c(-c4cccc5ncccc45)cnn3c2)cc1 (10 µM)
inactive: IRAK3 = 0 | JAK1 = 0 | LCK 0 | LIMK1 = 0 | LIMK2 = 0 | LMTK2 = 0 | LYN 0 | MAP2K1 = 0 | MAP2K2 = 0 | MAP4K2 = 0

Cn1cc(C2=C(c3c4n(c5ccccc35)CCC(CN)C4)C(=O)NC2=O)c2ccccc21 (stereo not given) [Bisindolylmaleimide X (hydrochloride)] (2.5 µM)
inactive: IRAK3 = 0 | JAK1 = 0 | LCK 0 | LIMK1 = 0 | LIMK2 = 0 | LMTK2 = 0 | LYN 0 | MAP2K1 = 0 | MAP2K2 = 0 | MAP4K2 = 0

O=C(Nc1nc2cccc(-c3ccc(CN4CCS(=O)(=O)CC4)cc3)n2n1)C1CC1 [Filgotinib] (2.5 µM)
inactive: IRAK3 = 0 | JAK1 = 0 | LCK 0 | LIMK1 = 0 | LIMK2 = 0 | LMTK2 = 0 | LYN 0 | MAP2K1 = 0 | MAP2K2 = 0 | MAP4K2 = 0

Cn1sc(=O)n(Cc2ccccc2)c1=O (10 µM)
inactive: IRAK3 = 0 | JAK1 = 0 | LCK 0 | LIMK1 = 0 | LIMK2 = 0 | LMTK2 = 0 | LYN 0 | MAP2K1 = 0 | MAP2K2 = 0 | MAP4K2 = 0

C[C@H](Nc1ccc2c(c1)OCCn1cc(N3C(=O)OC[C@H]3C(F)F)nc1-2)C(N)=O (10 µM)
inactive: IRAK3 = 0 | JAK1 = 0 | LCK 0 | LIMK1 = 0 | LIMK2 = 0 | LMTK2 = 0 | LYN 0 | MAP2K1 = 0 | MAP2K2 = 0 | MAP4K2 = 0

Not a retest: 2 of the compounds above.
O=C(Nc1nc2cccc(-c3ccc(CN4CCS(=O)(=O)CC4)cc3)n2n1)C1CC1 [Filgotinib] (2.5 µM)
inactive: IRAK3 = 0 | JAK1 = 0 | LCK 0 | LIMK1 = 0 | LIMK2 = 0 | LMTK2 = 0 | LYN 0 | MAP2K1 = 0 | MAP2K2 = 0 | MAP4K2 = 0

Cn1sc(=O)n(Cc2ccccc2)c1=O (10 µM)
inactive: IRAK3 = 0 | JAK1 = 0 | LCK 0 | LIMK1 = 0 | LIMK2 = 0 | LMTK2 = 0 | LYN 0 | MAP2K1 = 0 | MAP2K2 = 0 | MAP4K2 = 0

Following part.

N#Cc1cn([C@@H]2O[C@H](CO)[C@@H](O)[C@H]2O)c2nc[nH]c(=O)c12 [Jaspamycin] (10 µM)
inactive: IRAK3 = 0 | JAK1 = 0 | LCK 0 | LIMK1 = 0 | LIMK2 = 0 | LMTK2 = 0 | LYN 0 | MAP2K1 = 0 | MAP2K2 = 0 | MAP4K2 = 0

COc1ccc(COc2cc3oc(=O)c4cc(C(C)O)ccc4c3cc2OC)cc1 (stereo not given) [Palomid 529] (2.5 µM)
inactive: IRAK3 = 0 | JAK1 = 0 | LCK 0 | LIMK1 = 0 | LIMK2 = 0 | LMTK2 = 0 | LYN 0 | MAP2K1 = 0 | MAP2K2 = 0 | MAP4K2 = 0

O=c1cc(N2CCOCC2)oc2c1ccc1ccccc12 (2 µM)
inactive: IRAK3 = 0 | JAK1 = 0 | LCK 0 | LIMK1 = 0 | LIMK2 = 0 | LMTK2 = 0 | LYN 0 | MAP2K1 = 0 | MAP2K2 = 0 | MAP4K2 = 0

CC(C)=CCC/C(C)=C/CC/C(C)=C/CSc1ccccc1C(=O)O [Salirasib] (10 µM)
inactive: IRAK3 = 0 | JAK1 = 0 | LCK 0 | LIMK1 = 0 | LIMK2 = 0 | LMTK2 = 0 | LYN 0 | MAP2K1 = 0 | MAP2K2 = 0 | MAP4K2 = 0

C=CCN(/C=C1/C(=O)O[C@H](COC)[C@@]2(C)C1=C(O)C(=O)C1=C2[C@H](OC(C)=O)C[C@]2(C)C(=O)CC[C@@H]12)CC=C [Sonolisib] (2.5 µM)
inactive: IRAK3 = 0 | JAK1 = 0 | LCK 0 | LIMK1 = 0 | LIMK2 = 0 | LMTK2 = 0 | LYN 0 | MAP2K1 = 0 | MAP2K2 = 0 | MAP4K2 = 0

Reference: the supplement of paper PMC12823440, “Inhibitors supercharge kinase turnover through native proteolytic circuits” (Nature, 2025)
